{"source": "PubChem BioAssay AID1347431", "about": "(National Center for Advancing Translational Sciences (NCATS), 2020)", "note": "In all, about 1,200 compounds went through this assay and fewer than 10 were called active. The call rests on the fitted dose curve; in most records, active means well fitted curve in the direction sought with a large enough effect; inconclusive means small, poorly fitted or top-dose-only effect, or another doubt; inactive means no such curve, though single readings can be large or run the other way. Some of the results follow.", "data": [{"assay": "Confirmatory qHTS assay for inhibitors of Activation Induced Cytidine Deaminase (AID): UDG signals; further: 0% is about no effect", "details": "UDG coupled enzyme activity counter-screen; at 115 µM (top of the series) unless noted", "source_text": "Assay Provider (PI) Patricia Gearhart Ph.D.\nNational Institute on Aging\nNational Institute of Health (NIH), Bethesda, MD\nAssay Provider (PI) Rahul Kohli Ph.D.\nPerelman School of Medicine\nUniversity of Pennsylvania, Philadelphia, PA\nActivation-Induced Deaminase (AID) is a cytosine deaminase which converts cytosine into uracil within stretches of ssDNA. The presence of uracil in DNA initiates a cascade of mutagenic DNA repair to introduce point mutations and DNA double strand breaks. Specific targeting of AID to the immunoglobulin heavy chain loci (Igh) promotes mutagenesis in the antibody variable region for somatic hypermutation (SHM) or switch regions leading to class switch recombination (CSR). However, AID also plays a role in accumulating unnecessary mutations across the genome. Mis-targeting of AID results in the initiation of tumor development and leads to greater drug resistance among cancer cells when continually expressed. To identify an AID inhibitor, a small molecule library will be screened in collaboration with NCATS core facility at NIH. To confirm biological function, inhibitors will be examined in an in vitro murine B-cell activation assay and subsequent secondary validation screens. Top molecules will be further screened to identify inhibitory efficacy against a wild type primary splenocytes assay. Using these approaches, we hope to identify a small molecule with great efficacy and low toxicity for use as a molecular probe to further characterize AID's intricacies, or even as a therapeutic.\nA FRET based analysis of cytosine deamination, was developed to identify potential inhibitors of AID catalytic activity. This screen has two signal output, Read 1 evaluates the AID inhibition response. The second readout (Read 2) evaluates UDG response and is uses as a counterscreen to exclude false positive inhibitors. Inhibition in AID and inactivity in the UDG signal is the desired outcome for this assay.\nSEQUENCE No. (e.g., 1, 2, 3, etc.); […] (e.g., Cells, Incubation, Reagent, etc.); VALUE; DESCRIPTION\n1a; Reagent; 3 uL; [4/3x] 1 uM AID/2.67 U/mL UDG\n1b; Reagent; 3 uL; 2 U/mL UDG\n1c; Reagent; 3 uL; 1 uM AID\n2a; Compound; 46 nL; Follow-up plates (0.64 uM - 10 mM)\n2b; Control; 46 nL; ATA ([…] - 10 mM)\n3; Time; 10 min; incubation at room temperature\n5; Time; 4 hr; incubation at room temperature\n6; Reagent; 4 uL; [2x] 250 mM NaOH\n7; Time; 15 sec; centrifuge at 1000 rpm\n8; Time; 30 min; incubation at room temperature\n9a; Detection; fluorescence (Read 1: AID); EnVision (PerkinElmer) plate reader, 540 excitation and 590 emission filters\n9b; Detection; fluorescence (Read 2: UDG); EnVision (PerkinElmer) plate reader, 560 excitation and 665 emission filters\nNOTES (numbers refer to sequence above)\n1a; Reagents were dispensed in a medium-binding black solid-bottom Greiner plates (789176F) using a BioRptr liquid dispenser. Dispense 3 uL of [4/3x] 1 uM AID (provided by Kohli lab) and [4/3x] 2 U/mL UDG (NEB M0280L) into columns 1, 2, 5 to 48.\n1b; Dispense 3 uL of [4/3x] 2 U/mL UDG into column 3.\n1c; Dispense 3 uL of [4/3x] 1 uM AID into column 4.\n2a; Compound (7-points [uM]: 0.64; 3.2; 16; 80; 400; 2,000; 10,000; […]) double pin-transferred (Dip Factor = 2) using the Kalypsys (Wako USA) pintool equipped with a 1536 pinhead for a final concentration range of 7.32 nM - 114 uM.\n2b; 10 mM Aurintricarboxylic Acid (Sigma A1895) (ATA, 8-point, n = 2, 1:2.5 dilution in column 2) double pin-transferred (Dip Factor = 2) using the Kalypsys (Wako USA) pintool equipped with a 1536 pinhead for a [final] range of 186 nM - 114 uM.\n3; Room temperature incubation.\n4; Dispense 1 uL of substrate mixture from the Kohli lab [4x] […] DJC20 and [4x] 250 nM DJC23 into columns 1 to 48 .\n5; Room temperature incubation.\n6; Dispense 4 uL of substrate mixture [2x] 250 mM NaOH into columns 1 to 48.\n7; Centrifugation step to remove bubbles.\n8; Room temperature incubation\n9a; Fluorescence signal (column label AID) was read using the EnVision plate reader. […]", "values": [{"smiles": "CCOc1ccc2nc(Cl)c(C3CC(c4ccc(C)cc4)=NN3C(=O)CCC(=O)O)cc2c1", "note": "(configuration not stated)", "activity change, negative = inhibition": "inactive: 4.17%"}, {"smiles": "COc1ccc(-n2nc3c(N4CCC(C(=O)N5CCC(C)CC5)CC4)nnc(C)c3c2C)cc1", "activity change, negative = inhibition": "inactive: 8.91%"}, {"smiles": "Cc1ccc(Cl)cc1N1CCN(C(=O)c2ccc3c(Cl)c4c(nc3c2)CCCC4)CC1", "activity change, negative = inhibition": "inactive: 11.4%"}, {"smiles": "COc1cccc(-c2nc(CS(=O)(=O)CC(=O)N3CCN(c4ccccc4)CC3)c(C)o2)c1", "activity change, negative = inhibition": "inactive: -3.04%"}, {"smiles": "O=S(=O)(NCCc1nnc2ccc(SCc3ccccc3Cl)nn12)c1ccccc1", "activity change, negative = inhibition": "inactive: -3.37%"}, {"smiles": "CCc1ccc(OCC(=O)N(Cc2ccc(C(C)C)cc2)C2CCS(=O)(=O)C2)cc1", "note": "(configuration not stated)", "activity change, negative = inhibition": "inactive: -3.87%"}, {"smiles": "O=C(CSc1nnc(-c2ccccc2Cl)o1)N1CCCc2ccccc21", "activity change, negative = inhibition": "inactive: -3.12%"}, {"smiles": "Cc1ccc(Cn2c(SCc3ccc(C(=O)N4CCCCCC4)cc3)nc3ccncc32)cc1", "activity change, negative = inhibition": "inactive: 2.48%"}, {"smiles": "CCCCCSc1nc2sc3c(c2c(=O)n1-c1ccccc1)CCN(C(C)=O)C3", "activity change, negative = inhibition": "inactive: -5.51%"}, {"smiles": "COc1cc(C(c2c(C)[nH][nH]c2=O)c2c(C)[nH][nH]c2=O)ccc1OC(=O)c1cccc(C)c1", "activity change, negative = inhibition": "inactive: -10.8%"}, {"smiles": "COc1ccc(Cn2cc(C(=O)c3ccc(C)cc3)c(=O)c3cc(OC)c(OC)cc32)cc1", "activity change, negative = inhibition": "inactive: -9.13%"}, {"smiles": "COc1ccc(S(=O)(=O)N(CC(=O)Nc2cccc(C(F)(F)F)c2)c2ccc(C)cc2)cc1", "activity change, negative = inhibition": "inactive: -15.6%"}, {"smiles": "CCOC(=O)C1=C(CN2CCN(c3ccccc3F)CC2)NC(=O)NC1c1ccc(Cl)cc1", "note": "(configuration not stated)", "activity change, negative = inhibition": "inactive: -10.4%"}, {"smiles": "CCN(C(=O)c1cc2cc3ccc(OC)cc3nc2o1)c1cccc(C)c1", "activity change, negative = inhibition": "inactive: -18.5%"}, {"smiles": "O=C(CSc1nc2ccccc2nc1Cc1ccccc1)Nc1ccccc1C(F)(F)F", "activity change, negative = inhibition": "inactive: -4%"}, {"smiles": "CCc1nn(CCCC(=O)NCc2cc(Br)ccc2OC)c(=O)c2cc3occc3n12", "activity change, negative = inhibition": "inactive: 4.28%"}, {"smiles": "CCOCCCn1c(=N)c(C(=O)NC(C)c2ccccc2)cc2c(=O)n3cccc(C)c3nc21", "note": "(configuration not stated)", "activity change, negative = inhibition": "inactive: -12.7%"}, {"smiles": "CN(C(=O)c1ccc2c(c1)N(Cc1ccc(F)cc1)C(=O)c1ccccc1S2(=O)=O)C1CCCCC1", "activity change, negative = inhibition": "inactive: -12.6%"}, {"smiles": "Cc1cccc(N2CCN(C(=O)c3cccn3-c3nnc(N4CCCCC4)s3)CC2)c1C", "activity change, negative = inhibition": "inactive: -2.85%"}, {"smiles": "Cc1ccc(Cl)cc1N1CCN(C(=O)c2nn(C)c3c2CS(=O)(=O)c2ccccc2-3)CC1", "activity change, negative = inhibition": "inactive: -8.81%"}, {"smiles": "CCOc1ccc(S(=O)(=O)c2c(C(=O)c3ccc(C)c(C)c3)cnc3ccccc23)cc1", "activity change, negative = inhibition": "inactive: -3.6%"}, {"smiles": "CCc1ccc2oc(C(=O)NCC(c3ccc(Cl)cc3)N3CCOCC3)c(C)c2c1", "note": "(configuration not stated)", "activity change, negative = inhibition": "inactive: -10.8%"}, {"smiles": "Cc1cccc(N2CCN(C(=O)c3sc4nc5n(c(=O)c4c3C)CCC5)CC2C)c1", "note": "(configuration not stated)", "activity change, negative = inhibition": "inactive: 1.75%"}, {"smiles": "Cc1oc(-c2ccccc2Cl)nc1CS(=O)CC(=O)N1CCN(c2cccc(C(F)(F)F)c2)CC1", "note": "(configuration not stated)", "activity change, negative = inhibition": "inactive: 1.61%"}, {"smiles": "CCCc1cnc2c(c1SCc1cccc(C)c1)c(=O)n(C)c(=O)n2C", "activity change, negative = inhibition": "inactive: -1.25%"}, {"smiles": "CCOC(=O)c1ccc(-n2c(N)c(C(=O)OC)c3nc4ccccc4nc32)cc1", "activity change, negative = inhibition": "inactive: -1.19%"}, {"smiles": "O=C(Nc1cccc(Cl)c1)c1c(NC(=O)C(F)(F)F)sc2c1CCCC2", "activity change, negative = inhibition": "inactive: 1.29%"}, {"smiles": "CCOC(=O)c1c(C)n(-c2ccccc2)c2ccc(OC(=O)c3ccccc3NC(=O)C(C)(C)C)cc12", "activity change, negative = inhibition": "inactive: 6.08%"}, {"smiles": "Cc1ccc(N(Cc2cccs2)C(=O)COc2cccc(C)c2)cc1", "activity change, negative = inhibition": "inactive: -7.85%"}, {"smiles": "CCn1cc2nc(SCc3ccc(F)cc3)n(CCc3ccccc3)c(=O)c2n1", "activity change, negative = inhibition": "inactive: -5.53%"}, {"smiles": "COCCCNC(=O)c1oc2c(c1C)-c1nn(Cc3ccccc3Cl)cc1CC2", "activity change, negative = inhibition": "inactive: -4.93%"}, {"smiles": "CCC1=Nc2cc(C(=O)NCCCOC)ccc2Sc2ccc(Br)cc21", "activity change, negative = inhibition": "inactive: -0.0759%"}, {"smiles": "Cc1ccc(-n2ncc(C(=O)NCc3ccc4c(c3)OCO4)c2C2CCN(C(=O)OC(C)(C)C)CC2)c(C)c1", "activity change, negative = inhibition": "inactive: -8.77%"}, {"smiles": "CN1CCN(C(=O)c2ccc3c(c2)N(Cc2ccc(C(F)(F)F)cc2)C(=O)c2ccccc2S3)CC1", "activity change, negative = inhibition": "inactive: -7.78%"}, {"smiles": "Cc1cc(C)cc(N2C(=O)CSC23C(=O)N(Cc2c(F)cccc2Cl)c2ccccc23)c1", "note": "(configuration not stated)", "activity change, negative = inhibition": "inactive: -2.08%"}, {"smiles": "Cc1ccc(C)c(CN2C(=O)c3ccccc3S(=O)c3ccc(C(=O)N4CCCCC4)cc32)c1", "note": "(configuration not stated)", "activity change, negative = inhibition": "inactive: -10.3%"}, {"smiles": "O=C(NCCn1cc(SCc2ccc(C(F)(F)F)cc2)c2ccccc21)c1cccs1", "activity change, negative = inhibition": "inactive: -12.3%"}, {"smiles": "Cc1cccc(OC(C)C(=O)N2CCC(c3nc4ccccc4o3)CC2)c1C", "note": "(configuration not stated)", "activity change, negative = inhibition": "inactive: -9.18%"}, {"smiles": "COc1ccc(NCc2nc3ccccc3n2CCOc2ccccc2C)cc1", "activity change, negative = inhibition": "inactive: -1.79%"}, {"smiles": "COc1ccc(C(CNC(=O)COc2cc(C)c(Cl)c(C)c2)N2CCCCC2)cc1", "note": "(configuration not stated)", "activity change, negative = inhibition": "inactive: 8.19%"}, {"smiles": "CCN(CC)CCNC(=O)c1ccc2c(c1)sc1nc(-c3ccc(F)cc3)cn12", "activity change, negative = inhibition": "inactive: 10%"}, {"smiles": "Cc1ccc(CNC(=O)c2ccc3c(c2)nc(C)n3-c2cc(C)cc(C)c2)cc1", "activity change, negative = inhibition": "inactive: -8.08%"}, {"smiles": "CCC1CCCCN1CCCNC(=O)c1cc2c(Cl)nc3ccccc3c2s1", "note": "(configuration not stated)", "activity change, negative = inhibition": "inactive: -3.88%"}, {"smiles": "CCCCN(CCCC)CC(O)Cn1cc(/C=C/C(=O)c2ccccc2)c2ccccc21", "note": "(configuration not stated)", "activity change, negative = inhibition": "inactive: -1.73%"}, {"smiles": "Brc1c(Br)c(Br)c2n[nH]nc2c1Br", "activity change, negative = inhibition": "inactive: 3%"}, {"smiles": "Cc1cc2ccccc2n1-c1ccc(C(=O)N2CCCCC2)s1", "activity change, negative = inhibition": "inactive: -2.21%"}, {"smiles": "Cc1ccccc1CSc1nc2nc(C)c(Cc3ccccc3)c(C)n2n1", "activity change, negative = inhibition": "inactive: -8.79%"}, {"smiles": "Cc1ccc2onc(CC(=O)N3CCN(c4cc(Cl)ccc4C)CC3)c2c1", "activity change, negative = inhibition": "inactive: -3.38%"}, {"smiles": "CCc1ccc(-n2c(=O)c3c4c(sc3n(CC(=O)N3CCCCC3CC)c2=O)CCC4)cc1", "note": "(configuration not stated)", "activity change, negative = inhibition": "inactive: -7.42%"}, {"smiles": "CCc1ccccc1-n1c(C)nc2cc(C(=O)NCCc3ccc(Cl)cc3)ccc21", "activity change, negative = inhibition": "inactive: -15.8%"}, {"smiles": "Cc1nc2nc(SCC(=O)NC3CCCCC3)nn2c(C)c1Cc1ccccc1Cl", "activity change, negative = inhibition": "inactive: -1.05%"}, {"smiles": "CN(C)c1ccc(CN(Cc2ccco2)C(=O)c2ccc(C(C)(C)C)cc2)cc1", "activity change, negative = inhibition": "inactive: -10.2%"}]}]}
